Laboratory results published in patent publication US20250011413A1 (MCMASTER UNIVERSITY, published 2025).
No constants are given. Whether binding was seen depends on the method and setting. Some entries that bind do so weakly or less than the wild type.

Legend:
[1] = target: T1, PF4/heparin complex (human PF4 complexed with heparin) (human) (UniProt P02776); assay: competition EIA with full-length KKO
T1 sequence: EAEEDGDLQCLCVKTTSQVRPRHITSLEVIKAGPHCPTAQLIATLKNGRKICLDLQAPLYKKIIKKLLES

[2] = target: T1, PF4/heparin complex (human PF4 complexed with heparin) (human); assay: BLI (Octet), against wildtype scFv
[3] = target: T1, PF4/heparin complex (human PF4 complexed with heparin) (human); assay: BLI (Octet), biotinylated PF4/heparin on streptavidin sensors, scFv at 1 µg/mL
[4] = target: T2, Human PF4 (CXCL4), biotinylated, without heparin (human) (UniProt P02776); assay: BLI (Octet), biotinylated PF4 without heparin on streptavidin sensors, scFv at 1 µg/mL
T2 sequence (chain, biotinylated with EZ-link-Sulfo-NHS-LC-Biotin (sites not stated)): T1 sequence

[5] = target: T1, PF4/heparin complex (human PF4 complexed with heparin) (human); assay: BLI (Octet), biotinylated PF4/heparin on streptavidin sensors, scFv 1 µg/mL
[6] = target: T1, PF4/heparin complex (human PF4 complexed with heparin) (human); assay: streptavidin/biotin-heparin/PF4 inhibition EIA; competitor full-length KKO at 2 µg/mL, detected with anti-mouse IgG (n=3)

Measured: binding

B1: Mutant E scFv, scFv(Y156H, D180G, Q233P) (scFv)
scFv: DIQMIQSQKFMSTSVGDRVTVTCKASQNVGTNVAWYQQKPGQSPNALIYSASYRYSGVPDRFTGSGSGTDFTLTITNVQSEDLADYFCQQYNSYPLTFGTGTKLDLKGGGGSGGGGSGGGGSVQLQQSGAELVKPGASVKLSCKASGYTFTNYFIHWVKQRPGQGLEWIGEINPKNGDTGFNEKFESRATLTVDKSSSTAYMQLSSLTSEDSAIYYCTRSPYGNNYGFTYWGPGTLVTVSA
notes: VL-linker-VH; histidine-tagged, from E. coli BL21; also called Mut E; not shown: histidine tag from the pADL-22c vector
binds: all assays above
